# Assay results reported in the supplement of paper PMC9254222.
# Structures can show the parent of a compound that is named as a salt. The full ranking holds about 1,100 compounds; the median of “Renilla luciferase signal (cell health) relative to plate median” is about 0.97, and the highest 2% start at about 1.6. The list shows a part of the results, in another mix than the full data.
# System: HEK293T (UBE3A T485A transfected, BAR Wnt reporter)
# Experiment: Renilla luciferase signal (cell health) relative to plate median (fold (linear ratio)); higher = higher Renilla signal
# Settings: 24 h
# Summary of the method: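 Using Fugene 6, HEK293T cells in white 384-well plates (4500 cells/well; DMEM, 10% FBS, 37°C, 5% CO2) were transfected with a BAR firefly luciferase Wnt reporter, TK-Renilla and an expression plasmid. After four hours, robots dosed the chemicals at 0.01–100 uM, and a Dual-Glo luciferase readout followed 24 h later. Per-plate median-centred firefly/Renilla ratios gave Wnt activity, while per-plate median-centred raw Renilla signals gave cell health. Four biological replicates were averaged.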
Compound,Renilla luciferase signal (concentration: 0.1 uM),Renilla luciferase signal (concentration: 1 uM),Renilla luciferase signal (concentration: 10 uM),Renilla luciferase signal (concentration: 100 uM),Renilla luciferase signal (concentration: 0.01 uM)
CCOc1cccc([C@]2(N3CCN(c4ccccc4)CC3)CC[C@@H](C)CC2)c1.CS(=O)(=O)O,1.04,0.985,1.13,0.84,
"Clc1ccc(Cl)cc1 [1,4-Dichlorobenzene]",0.907,0.935,1.01,1.52,
CCON=C(CC)C1=C(O)CC(c2c(C)cc(C)cc2C)CC1=O (configuration not stated) [Tralkoxydim],0.909,0.936,1.06,0.913,0.883
N#Cc1c(Cl)c(Cl)c(Cl)c(C#N)c1Cl [Chlorothalonil],0.952,0.75,0.359,0.00871,1.01
CC(C)N1C(=O)c2ccccc2NS1(=O)=O [Bentazone],1.07,1.11,1.34,0.305,0.77
ClC1=C(Cl)[C@]2(Cl)[C@H]3[C@H]([C@@H]4C=C[C@H]3C4)[C@@]1(Cl)C2(Cl)Cl [Aldrin],0.922,0.941,1.02,1.1,
COC(=O)c1ccccc1C(=O)OC [Dimethyl phthalate],0.976,1.03,1.06,1.37,1.16
CON(C)C(=O)Nc1ccc(Cl)c(Cl)c1 [Linuron],1.21,1.03,1.04,0.863,1.29
CCC(C)Nc1c([N+](=O)[O-])cc(C(C)(C)C)cc1[N+](=O)[O-] (configuration not stated) [Butralin],1.06,0.989,1.04,1.94,0.921
COC(=CC(N)=O)C(C)C(C=Cc1csc(-c2csc(C(C)C=CC=CC(C)C)n2)n1)OC (configuration not stated) [Myxothiazol],1.03,0.128,0.201,0.0156,0.923
O=C(Nc1ccccc1)Nc1ccnc(Cl)c1 [Forchlorfenuron],1.2,1.05,0.842,0.0165,1.2
CCC(C)(C)c1ccc(O)cc1 [4-(2-Methylbutan-2-yl)phenol],0.874,0.809,0.795,0.442,
Cl[C@H]1[C@H](Cl)[C@@H](Cl)[C@@H](Cl)[C@H](Cl)[C@H]1Cl [Lindane],0.93,0.973,0.922,1.17,0.922
CC(COc1ccc(Oc2ccccc2)cc1)Oc1ccccn1 (configuration not stated) [Pyriproxyfen],1.17,1.02,0.72,0.712,1.21
ClC1=C(Cl)C2(Cl)C3C4OC4C(Cl)C3C1(Cl)C2(Cl)Cl (configuration not stated) [Heptachlor epoxide],1.08,1.13,1.11,1.37,
O=C(O)CNCP(=O)(O)O [Glyphosate],0.874,0.905,1.07,2.5,0.796
CON=C(C(=O)OC)c1ccccc1COc1ccccc1C [Kresoxim methyl],1.03,0.788,0.886,0.319,1.11
ClC(Cl)c1ccccc1 [Benzal chloride],1.11,0.929,1.12,1.15,
COS(=O)(=O)[O-].Cn1c(-c2ccccc2)cc(-c2ccccc2)[n+]1C [Difenzoquat metilsulfate],1.21,0.979,0.98,0.0929,1.41
CCC(=O)O[C@H]1CC[C@H]2[C@@H]3CCC4=CC(=O)CC[C@]4(C)[C@H]3CC[C@]12C [Testosterone propionate],0.869,0.772,0.878,1.11,

# Part of the list above in order of heavy-atom count, rising:
Compound,Renilla luciferase signal (concentration: 0.1 uM),Renilla luciferase signal (concentration: 1 uM),Renilla luciferase signal (concentration: 10 uM),Renilla luciferase signal (concentration: 100 uM),Renilla luciferase signal (concentration: 0.01 uM)
CCC(C)(C)c1ccc(O)cc1 [4-(2-Methylbutan-2-yl)phenol],0.874,0.809,0.795,0.442,
N#Cc1c(Cl)c(Cl)c(Cl)c(C#N)c1Cl [Chlorothalonil],0.952,0.75,0.359,0.00871,1.01
CC(C)N1C(=O)c2ccccc2NS1(=O)=O [Bentazone],1.07,1.11,1.34,0.305,0.77
ClC1=C(Cl)[C@]2(Cl)[C@H]3[C@H]([C@@H]4C=C[C@H]3C4)[C@@]1(Cl)C2(Cl)Cl [Aldrin],0.922,0.941,1.02,1.1,
CCC(C)Nc1c([N+](=O)[O-])cc(C(C)(C)C)cc1[N+](=O)[O-] (configuration not stated) [Butralin],1.06,0.989,1.04,1.94,0.921
CON=C(C(=O)OC)c1ccccc1COc1ccccc1C [Kresoxim methyl],1.03,0.788,0.886,0.319,1.11
CC(COc1ccc(Oc2ccccc2)cc1)Oc1ccccn1 (configuration not stated) [Pyriproxyfen],1.17,1.02,0.72,0.712,1.21

# The list continues.

Compound,Renilla luciferase signal (concentration: 0.1 uM),Renilla luciferase signal (concentration: 1 uM),Renilla luciferase signal (concentration: 10 uM),Renilla luciferase signal (concentration: 100 uM),Renilla luciferase signal (concentration: 0.01 uM)
N#CCCCCC#N [Hexanedinitrile],0.974,0.99,1.02,0.934,
CC(Oc1cccc(Cl)c1)C(=O)O (configuration not stated) [Cloprop],0.701,0.814,1.01,2.51,0.924
CCCC1COC(Cn2cncn2)(c2ccc(Cl)cc2Cl)O1 (configuration not stated) [Propiconazole],0.935,0.943,1.05,0.0347,0.966
COS(=O)(=O)OC [Dimethyl sulfate],0.879,0.971,0.924,0.122,
O=S1OCC2C(CO1)C1(Cl)C(Cl)=C(Cl)C2(Cl)C1(Cl)Cl (configuration not stated) [Endosulfan],1.05,1.02,1.13,1.06,1.05
O=C(O)C(F)(F)C(F)(F)C(F)(F)C(F)(F)C(F)(F)C(F)(F)F [Perfluoroheptanoic acid],1.29,1.06,1.17,1.43,
CC1=C(C(=O)Nc2ccccc2)SCCO1 [Carboxin],,,,2.12,
CCNc1nc(NC(C)C)nc(SC)n1 [Ametryn],,,,1.78,
OC(c1ccc(Cl)cc1)(c1ccc(Cl)cc1)C(Cl)(Cl)Cl [Dicofol],0.789,0.945,0.906,0.881,0.727
COc1cccc(C(=O)NN(C(=O)c2cc(C)cc(C)c2)C(C)(C)C)c1C [Methoxyfenozide],1.1,1.05,1.04,0.685,1.37
OCCCl [2-Chloroethanol],1.03,1.11,1.27,1.29,
COP(=O)(OC)O/C(C)=C/C(=O)N(C)C [Dicrotophos],1.16,0.994,1.09,1.78,1.19
Cc1nc(N(C)C)nc(OC(=O)N(C)C)c1C [Pirimicarb],1.09,1.1,1.21,2.4,1.09
O=[N+]([O-])C(Br)(CO)CO [Bronopol],0.933,0.91,0.912,0.0266,
COP(=S)(OC)Oc1ccc(SC)c(C)c1 [Fenthion],0.956,0.971,1.07,1.5,1.03
[Cl-].[Cl-].[Hg+2] [Mercuric chloride],0.533,0.402,0.153,0.0217,
"Nc1ccc(Oc2ccc(N)cc2)cc1 [4,4'-Oxydianiline]",0.892,0.88,0.918,0.923,
CCc1cccc(C)c1N(C(=O)CCl)C(C)COC (configuration not stated) [Metolachlor],0.734,1.07,1.03,0.558,1.15
"CN(C)c1ccc(Cc2ccc(N(C)C)cc2)cc1 [4,4'-Methylenebis(N,N-dimethylaniline)]",1.12,1.11,1.1,0.424,
Clc1nc(Cl)nc(Nc2ccccc2Cl)n1 [Anilazine],1.15,1.05,1.07,1.54,1.13
